Among the data in patent publication US20230416942A1 (YALE UNIVERSITY, published 2023) are binding values, retold here.

By UniProt entry, the sequences of proteins in these tests, tags left out. Residues count along the entry.
UniProt P07766, residues 23-126: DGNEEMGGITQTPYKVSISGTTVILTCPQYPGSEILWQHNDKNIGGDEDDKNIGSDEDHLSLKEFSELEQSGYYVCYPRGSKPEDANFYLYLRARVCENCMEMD
UniProt Q02223, residues 1-54: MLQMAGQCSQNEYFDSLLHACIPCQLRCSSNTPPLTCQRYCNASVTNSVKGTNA
UniProt Q9UNG2, residues 49-177: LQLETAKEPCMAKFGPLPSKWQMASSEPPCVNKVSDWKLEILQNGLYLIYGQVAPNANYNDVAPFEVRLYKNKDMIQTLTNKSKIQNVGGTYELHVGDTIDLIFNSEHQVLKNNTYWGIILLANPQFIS
UniProt P04234, residues 22-105: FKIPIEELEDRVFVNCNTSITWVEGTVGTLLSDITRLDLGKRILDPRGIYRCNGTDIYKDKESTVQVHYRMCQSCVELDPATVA

In one assay the target is T1, PROCR (human, UniProt Q9UNN8 18-210).
T1 construct: Recombinant human protein in ELISA and BLI
T1 sequence (looked up): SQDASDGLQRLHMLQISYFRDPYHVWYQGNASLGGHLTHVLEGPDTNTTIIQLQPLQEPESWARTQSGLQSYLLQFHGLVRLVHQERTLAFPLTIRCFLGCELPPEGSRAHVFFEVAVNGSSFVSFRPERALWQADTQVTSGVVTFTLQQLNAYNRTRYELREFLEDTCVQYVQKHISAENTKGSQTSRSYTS
Kind of assay: REAP, yeast-displayed human antigen library.

A further assay has as its target T2, CD3E (human, UniProt P07766 23-126).
T2 construct: Recombinant human protein in ELISA
In words: REAP, yeast-displayed human antigen library.

In assay [1] the target is TNFRSF17 (yeast-displayed human antigen, REAP library) (human) (UniProt Q02223). Kind of assay: REAP, nanobody-Fc on yeast-displayed human antigen library (REAP Binding to Targets).
The target in a further assay is T3, CD302 (human, UniProt Q8IX05 23-168, limits assumed).
T3 construct: Recombinant human protein in ELISA
T3 sequence (looked up): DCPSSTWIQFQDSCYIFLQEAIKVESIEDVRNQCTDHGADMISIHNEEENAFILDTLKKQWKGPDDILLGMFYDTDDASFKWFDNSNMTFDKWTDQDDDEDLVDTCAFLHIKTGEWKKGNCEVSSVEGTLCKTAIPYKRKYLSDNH
In words: REAP, yeast-displayed human antigen library.

The target of assay [2] is TNFSF18 (yeast-displayed human antigen, REAP library) (human) (UniProt Q9UNG2). Kind of assay: REAP, nanobody-Fc on yeast-displayed human antigen library (REAP Binding to Targets).
Another assay has as its target T4, CD3D (human, UniProt P04234 22-105).
T4 construct: Recombinant human protein in ELISA
Kind of assay: REAP, yeast-displayed human antigen library.

Results are given in words; binding and its absence hold for the method and conditions named. Some results given as binding are weak or reduced against the parent protein; the word gives no strength.

B1: PROCR_Nb87 (Fc fusion)
chain: QVQLQESGGGLVQAGGSLRLSCAASGSISSYPYMGWYRQAPGKERELVASIASGTNTYYADSVKGRFTISRDNAKNTVYLQMNSLKPEDTAVYYCAADSTGPWSHVYWGQGTQVTVSS
notes: Nanobody expressed and tested as Fc fusion (human IgG1); not shown: human IgG1 Fc (vector pCER243)
In the case of B1, in the assay with PROCR, the binding entry is recorded as “binds”.

B2: CD3E_Nb2.76 (Fc fusion)
chain: QVQLQESGGGLVQAGGSLRLSCAASGNIFGNVVMGWYRQAPGKEREFVAGINNGGSTNYADSVKGRFTISRDNAKNTVYLQMNSLKPEDTAVYYCAVYYYYLTYHLYWGQGTQVTVSS
notes: as for B1
For the molecule B2, the binding entry in the assay with CD3E was “binds”.

B3: TNFRSF17_Nb2.19 (Fc fusion)
chain: QVQLQESGGGLVQAGGSLRLSCAASGTISHPTYMGWYRQAPGKEREFVAGISDGTNTYYADSVKGRFTISRDNAKNTVYLQMNSLKPEDTAVYYCAAITSWDYGYGYWGQGTQVTVSS
notes: Nanobody expressed as an Fc fusion protein (fused with human IgG1) in Expi293 cells; not shown: human IgG1 Fc; nanobodies expressed as Fc fusion from vector pCER243
On to B3, for which, in assay [1], the binding result was “binds”.

B4: PROCR_Nb83 (Fc fusion)
chain: QVQLQESGGGLVQAGGSLRLSCAASGNISPTRFMGWYRQAPGKEREFVAAIDLGTTTNYADSVKGRFTISRDNAKNTVYLQMNSLKPEDTAVYYCAADWNGPWSFWYWGQGTQVTVSS
notes: as for B1
Consider B4, for which the binding result in the assay with PROCR was “binds”.

B5: CD3E_Nb2.74 (Fc fusion)
chain: QVQLQESGGGLVQAGGSLRLSCAASGTIFYASVMGWYRQAPGKEREFVAGITPGGSTNYADSVKGRFTISRDNAKNTVYLQMNSLKPEDTAVYYCAVYYRYSEGRIGGHAYWGQGTQVTVSS
notes: as for B1
Regarding B5, the binding result with CD3E is “binds”.

B6: CD302_Nb28 (Fc fusion)
chain: QVQLQESGGGLVQAGGSLRLSCAASGSISGVSGMGWYRQAPGKEREFVAGITTGTSTYYADSVKGRFTISRDNAKNTVYLQMNSLKPEDTAVYYCAAYANYVPSSRLYLRYWGQGTQVTVSS
notes: as for B1
On to B6, for which the binding entry with CD302 is recorded as “binds”.

B7: CD3E_Nb2.80 (Fc fusion)
chain: QVQLQESGGGLVQAGGSLRLSCAASGNISRRYVMGWYRQAPGKEREFVAGISGGSSTYYADSVKGRFTISRDNAKNTVYLQMNSLKPEDTAVYYCAVLISGNTPNAISHYYWGQGTQVTVSS
notes: as for B1
Regarding B7, in the assay with CD3E, the binding result is “binds”.

B8: PROCR_Nb88 (Fc fusion)
chain: QVQLQESGGGLVQAGGSLRLSCAASGTIFKLGYMGWYRQAPGKEREFVATITTGATTYYADSVKGRFTISRDNAKNTVYLQMNSLKPEDTAVYYCAADTYGPWAYSYWGQGTQVTVSS
notes: as for B1
B8: in the assay with PROCR, the binding result is reported as “binds”.

B9: CD3E_Nb2.77 (Fc fusion)
chain: QVQLQESGGGLVQAGGSLRLSCAASGSISPVAVMGWYRQAPGKEREFVAAINYGANTYYADSVKGRFTISRDNAKNTVYLQMNSLKPEDTAVYYCAAATYAPYQRSGKLVYWGQGTQVTVSS
notes: as for B1
For B9, in the assay with CD3E, the binding result is on record as “binds”.

B10: CD3E_Nb2.79 (Fc fusion)
chain: QVQLQESGGGLVQAGGSLRLSCAASGTISPWRVMGWYRQAPGKEREFVAGITPGTTTYYADSVKGRFTISRDNAKNTVYLQMNSLKPEDTAVYYCAVSAGASTPARYRLVYWGQGTQVTVSS
notes: as for B1
B10: in the assay with CD3E, the binding result is on record as “binds”.

B11: CD302_Nb26 (Fc fusion)
chain: QVQLQESGGGLVQAGGSLRLSCAASGNISFIGAMGWYRQAPGKEREFVAGINVGTNTYYADSVKGRFTISRDNAKNTVYLQMNSLKPEDTAVYYCAAYVFVSRIDLRYLVYWGQGTQVTVSS
notes: as for B1
B11: the binding result with CD302 is “binds”.

B12: CD302_Nb31 (Fc fusion)
chain: QVQLQESGGGLVQAGGSLRLSCAASGTIFKSAGMGWYRQAPGKEREFVAGIAPGAITYYADSVKGRFTISRDNAKNTVYLQMNSLKPEDTAVYYCAALVADGRPYRYWGQGTQVTVSS
notes: as for B1
As to B12, the binding entry in the assay with CD302 was “binds”.

B13: TNFRSF17_Nb2.18 (Fc fusion)
chain: QVQLQESGGGLVQAGGSLRLSCAASGNIFRGWYMGWYRQAPGKEREFVATIASGGSTYYADSVKGRFTISRDNAKNTVYLQMNSLKPEDTAVYYCAVWDWEPGDYAYWGQGTQVTVSS
notes: as for B3
For the molecule B13, in assay [1], the binding entry was “binds”.

B14: TNFRSF17_Nb2.23 (Fc fusion)
chain: QVQLQESGGGLVQAGGSLRLSCAASGYISRYDYMGWYRQAPGKERELVAAINSGASTYYADSVKGRFTISRDNAKNTVYLQMNSLKPEDTAVYYCAVRSWGLDDYAYWGQGTQVTVSS
notes: as for B3
With B14, the binding result in assay [1] is reported as “binds”.

B15: TNFRSF17_Nb2.21 (Fc fusion)
chain: QVQLQESGGGLVQAGGSLRLSCAASGTIFQYDYMGWYRQAPGKEREFVAAIAYGGNTNYADSVKGRFTISRDNAKNTVYLQMNSLKPEDTAVYYCAAWSWRRSRAYWGQGTQVTVSS
notes: as for B3
For the molecule B15, the binding result in assay [1] was “binds”.

B16: CD302_Nb32 (Fc fusion)
chain: QVQLQESGGGLVQAGGSLRLSCAASGTIFPDSSMGWYRQAPGKEREFVAGITTGANTYYADSVKGRFTISRDNAKNTVYLQMNSLKPEDTAVYYCAAYHVDRAVFRYWGQGTQVTVSS
notes: as for B1
With B16, in the assay with CD302, the binding entry was “binds”.

B17: TNFSF18_Nb96 (Fc fusion)
chain: QVQLQESGGGLVQAGGSLRLSCAASGNISWVYWMGWYRQAPGKERELVAGIATGGSTNYADSVKGRFTISRDNAKNTVYLQMNSLKPEDTAVYYCAVVASNGSRFWYWGQGTQVTVSS
notes: as for B3
In the case of B17, the binding entry in assay [2] was “binds”.

B18: CD302_Nb35 (Fc fusion)
chain: QVQLQESGGGLVQAGGSLRLSCAASGTISRVFVMGWYRQAPGKERELVAGIGGGTSTYYADSVKGRFTISRDNAKNTVYLQMNSLKPEDTAVYYCAAILSDRVLFRYWGQGTQVTVSS
notes: as for B1
As for B18, the binding result with CD302 is recorded as “binds”.

B19: TNFSF18_Nb98 (Fc fusion)
chain: QVQLQESGGGLVQAGGSLRLSCAASGSIFYVIAMGWYRQAPGKERELVATITAGTNTYYADSVKGRFTISRDNAKNTVYLQMNSLKPEDTAVYYCAVYALQQDVYDRSHAYWGQGTQVTVSS
notes: as for B3
As for B19, the binding entry in assay [2] was “binds”.

B20: PROCR_Nb85 (Fc fusion)
chain: QVQLQESGGGLVQAGGSLRLSCAASGNISVLVYMGWYRQAPGKERELVAAITTGTSTYYADSVKGRFTISRDNAKNTVYLQMNSLKPEDTAVYYCAADYYGPWYHQYWGQGTQVTVSS
notes: as for B1
On to B20, for which, in the assay with PROCR, the binding entry was “binds”.

B21: CD302_Nb33 (Fc fusion)
chain: QVQLQESGGGLVQAGGSLRLSCAASGTISIIFAMGWYRQAPGKEREFVAGIGRGTTTYYADSVKGRFTISRDNAKNTVYLQMNSLKPEDTAVYYCAAHVFYDNVVQRHAYWGQGTQVTVSS
notes: as for B1
Consider B21, for which, in the assay with CD302, the binding entry is on record as “binds”.

B22: TNFSF18_Nb93 (Fc fusion)
chain: QVQLQESGGGLVQAGGSLRLSCAASGNISDPPFMGWYRQAPGKERELVAGISWGASTYYADSVKGRFTISRDNAKNTVYLQMNSLKPEDTAVYYCAAVTTDFGAYPFAYWGQGTQVTVSS
notes: as for B3
For the molecule B22, the binding entry in assay [2] is given as “binds”.

B23: PROCR_Nb89 (Fc fusion)
chain: QVQLQESGGGLVQAGGSLRLSCAASGTIFRDDNMGWYRQAPGKEREFVAAIGYGSTTNYADSVKGRFTISRDNAKNTVYLQMNSLKPEDTAVYYCAVRNTYWNLLQYWGQGTQVTVSS
notes: as for B1
Regarding B23, the binding entry in the assay with PROCR was “binds”.

B24: TNFSF18_Nb101 (Fc fusion)
chain: QVQLQESGGGLVQAGGSLRLSCAASGYIFDDYGMGWYRQAPGKERELVATINAGANTNYADSVKGRFTISRDNAKNTVYLQMNSLKPEDTAVYYCAVYYGPYYRYLDPYLYWGQGTQVTVSS
notes: as for B3
Regarding B24, the binding entry in assay [2] was “binds”.

B25: CD302_Nb30 (Fc fusion)
chain: QVQLQESGGGLVQAGGSLRLSCAASGSISLATGMGWYRQAPGKEREFVAGISVGTSTYYADSVKGRFTISRDNAKNTVYLQMNSLKPEDTAVYYCAAIAWHPSGARSYLRYWGQGTQVTVSS
notes: as for B1
Regarding B25, the binding result with CD302 is “binds”.

B26: CD3E_Nb2.73 (Fc fusion)
chain: QVQLQESGGGLVQAGGSLRLSCAASGNISDITVMGWYRQAPGKEREFVAGINYGGSTNYADSVKGRFTISRDNAKNTVYLQMNSLKPEDTAVYYCAARYRYRYSAREFHDYWGQGTQVTVSS
notes: as for B1
Regarding B26, in the assay with CD3E, the binding entry is “binds”.

B27: CD3D_Nb2.33 (Fc fusion)
chain: QVQLQESGGGLVQAGGSLRLSCAASGSIFYAEYMGWYRQAPGKEREFVAAITAGSTTYYADSVKGRFTISRDNAKNTVYLQMNSLKPEDTAVYYCAADGYYYGIEFTYYEYWGQGTQVTVSS
notes: as for B1
As for B27, in the assay with CD3D, the binding entry is listed as “binds”.

B28: TNFRSF17_Nb2.20 (Fc fusion)
chain: QVQLQESGGGLVQAGGSLRLSCAASGTIFSDYMGWYRQAPGKEREFVATIAVGSITYYADSVKGRFTISRDNAKNTVYLQMNSLKPEDTAVYYCAVWDASWADYAYWGQGTQVTVSS
notes: as for B3
In the case of B28, the binding result in assay [1] was “binds”.

B29: PROCR_Nb90 (Fc fusion)
chain: QVQLQESGGGLVQAGGSLRLSCAASGTISGGYNMGWYRQAPGKEREFVATIGDGSSTYYADSVKGRFTISRDNAKNTVYLQMNSLKPEDTAVYYCAAFNSAQYWYESPFRYWGQGTQVTVSS
notes: as for B1
As for B29, in the assay with PROCR, the binding result is listed as “binds”.
